Some of these results come from one statement about several compounds together.
Biological target: T1, mouse two-pore potassium channel K2P2.1 (TREK-1) (Mus musculus, UniProt P97438)
T1 construct: expressed in transfected cells; host or cells: Saccharomyces cerevisiae SGY1528 (pYES2-MET25 plasmid)
T1 sequence (P97438 1-411 isoform P97438-2): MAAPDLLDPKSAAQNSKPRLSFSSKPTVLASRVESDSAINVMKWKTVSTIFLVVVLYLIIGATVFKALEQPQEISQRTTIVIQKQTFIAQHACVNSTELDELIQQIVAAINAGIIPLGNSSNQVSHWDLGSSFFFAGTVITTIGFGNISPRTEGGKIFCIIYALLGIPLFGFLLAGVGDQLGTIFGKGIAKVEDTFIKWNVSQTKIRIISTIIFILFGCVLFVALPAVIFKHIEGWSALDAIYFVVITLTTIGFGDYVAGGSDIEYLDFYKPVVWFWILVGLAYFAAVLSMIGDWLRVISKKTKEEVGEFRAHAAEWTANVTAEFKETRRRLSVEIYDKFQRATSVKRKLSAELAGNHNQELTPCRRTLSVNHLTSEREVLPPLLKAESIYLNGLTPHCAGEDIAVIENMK
Assay: Yeast growth-based screen (resazurin) with K2P2.1 (TREK-1)-expressing SGY1528 yeast, counter-screen Trk1p
Type: cell-based
Details: dose-response 0.4-50 μM

Row | SMILES | difference in the apparent IC50 to inhibit growth of yeast expressing K2P2.1 (TREK-1) versus Trk1p [fold]
1 | Cc1cccc(-n2ncc3c(NCCc4ccccc4)ncnc32)c1 [ML45, 1-(3-methylpyhenyl)-N-(2-phenylethyl)-1H-pyrazolo[3,4-d]pyrimidin-4-amine] | ≥ 2
2 | O=C(O)CCn1c2ccc(Cl)cc2c2cc(Cl)ccc21 [ML67, 3-(3,6-dichlorocarbazol-9-yl)propanoic acid] | ≥ 2
